The list does not hold the whole screen: it gathers tests that were run many times, whatever their T/C, doses with no T/C, and many T/C values between a quarter and a half above the control. Other doses and runs of a compound stand elsewhere. T/C: endpoint of the treated group in % of that of the vehicle group. Some entries give survivors of the animals treated and no T/C: the source holds a T/C of zero for them, seemingly a mark for toxic or unscored doses. Some survivor counts are full or nearly so, which does not show that the dose was tolerated: survival well below the control is almost never listed, so the zero probably covers shortened survival too. Survivors were counted at the toxicity check, usually on the fifth day, unless a day is given; later deaths do not show. Schedules are NCI's codes, read here as Q, the interval in days (D) or hours (H), X, the number of doses. Some doses were run more than once; their values stand side by side, smallest first. Where survival is the endpoint, the PubChem record calls one and a half times the control and up active, and a quarter to a half above the control has no call in these data; cut-offs in other NCI protocols can differ. Some T/C values are followed by the survivors on the day toxicity was checked, most often the fifth; without a count, all were alive then.

For 13 compounds, T/C and survivor count results are on record in PubChem BioAssay AID192 (DTP/NCI, 2004).

For the experiment, the system named is BDF1 mice, B16 melanoma ip, median survival T/C. The experiment can be described thus: NCI In Vivo Anticancer Drug Screen. Data for tumor model B16 Melanoma (intraperitoneal) in B6D2F1 (BDF1) mice. Particulars: T/C endpoint: median survival time, higher T/C = longer survival. Put shortly:
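Mice with transplantable tumors; drug vs vehicle groups; endpoint survival or tumor size; value = T/C.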

Setting [1] is: dose: 400.0 mg/kg/injection, schedule: Q04DX003 (ip), vehicle: saline.
The mark [2] stands for this setting: dose: 3.0 mg/kg/injection, schedule: Q01DX009 (ip), vehicle: Klucel (hydroxypropylcellulose) (HPC).
The mark [3] stands for this setting: dose: 6.0 mg/kg/injection, schedule: Q01DX009 (ip), vehicle: Klucel (hydroxypropylcellulose) (HPC).
Setting [4] is: dose: 50.0 mg/kg/injection, schedule: Q01DX009 (ip), vehicle: Klucel (hydroxypropylcellulose) (HPC).
Setting [5] is: dose: 400.0 mg/kg/injection, schedule: Q01DX009 (ip), vehicle: Klucel (hydroxypropylcellulose) (HPC).
The mark [6] stands for this setting: dose: 100.0 mg/kg/injection, schedule: Q01DX009 (ip), vehicle: Klucel (hydroxypropylcellulose) (HPC).

As to `COc1cc2ccc3c4cc5c(cc4c[n+](C)c3c2cc1OC)OCO5`, the T/C (dose: 20.0 mg/kg/injection, schedule: Q01DX009 (ip), vehicle: Klucel (hydroxypropylcellulose) (HPC)) is 127 % of control. Also, the survivor count runs as follows: (dose: 40.0 mg/kg/injection, schedule: Q01DX009 (ip), vehicle: Klucel (hydroxypropylcellulose) (HPC)) 9 of 10; (dose: 80.0 mg/kg/injection, schedule: Q01DX009 (ip), vehicle: Klucel (hydroxypropylcellulose) (HPC)) 10 of 10; (dose: 160.0 mg/kg/injection, schedule: Q01DX009 (ip), vehicle: Klucel (hydroxypropylcellulose) (HPC)) 9 of 10.
As to `O=C(O)C1C2CC(O)C(C2)C1C(=O)O` (stereo unspecified), under setting [1], the survivor count was 10 of 10.
As for `CC1OC(=O)C(C(C)C)NC(=O)C(C(C)C)OC(=O)C(C(C)C)NC(=O)C(C)OC(=O)C(C(C)C)NC(=O)C(C(C)C)OC(=O)C(C(C)C)NC(=O)C(C)OC(=O)C(C(C)C)NC(=O)C(C(C)C)OC(=O)C(C(C)C)NC1=O` (stereo unspecified), the T/C by setting is: (dose: 0.2 mg/kg/injection, schedule: Q01DX009 (ip), vehicle: DMSO) 142 % of control; (dose: 0.31 mg/kg/injection, schedule: Q01DX009 (ip), vehicle: saline with Tween-80) 144 % of control; (dose: 0.4 mg/kg/injection, schedule: Q01DX009 (ip), vehicle: DMSO) 136 % of control; (dose: 0.62 mg/kg/injection, schedule: Q01DX009 (ip), vehicle: saline with Tween-80) 128 % of control; (dose: 0.75 mg/kg/injection, schedule: Q01DX009 (ip), vehicle: saline with Tween-80) 140 % of control; (dose: 1.25 mg/kg/injection, schedule: Q01DX009 (ip), vehicle: saline with Tween-80) 126 % of control [9 of 10 alive]. Further, the T/C by setting is: (dose: 1.5 mg/kg/injection, schedule: Q01DX009 (ip), vehicle: saline with Tween-80) 133 % of control; (dose: 2.5 mg/kg/injection, schedule: Q01DX009 (ip), vehicle: saline with Tween-80) 141 % of control; under setting [2], 125 % of control [8 of 10 alive]; (dose: 3.0 mg/kg/injection, schedule: Q01DX009 (ip), vehicle: saline with Tween-80) 140 % of control; under setting [3], 135 % of control. For the same compound, the survivor count is, setting by setting: (dose: 0.8 mg/kg/injection, schedule: Q01DX009 (ip), vehicle: DMSO) 0 of 10 and 8 of 10; (dose: 1.6 mg/kg/injection, schedule: Q01DX009 (ip), vehicle: DMSO) 0 of 10 and 2 of 10; (dose: 40.0 mg/kg/injection, schedule: Q01DX009 (ip), vehicle: saline with Tween-80) 8 of 10; (dose: 80.0 mg/kg/injection, schedule: Q01DX009 (oral), vehicle: saline with Tween-80) 10 of 10.
For `CCc1c2cc(OC)c(OC)cc2cc2c3cc(OC)c(OC)cc3cc[n+]12` (tested in a mixture with another compound), the survivor count (dose: 300.0 mg/kg/injection, schedule: Q01DX009 (ip), vehicle: saline with Tween-80) is recorded as 5 of 10.
Regarding `NC(Cn1cc(N(CCCl)CCCl)c(=O)[nH]c1=O)C(=O)O` (stereo unspecified), the T/C (dose: 24.0 mg/kg/injection, schedule: Q01DX009 (ip), vehicle: saline) is 129 % of control. Besides, where the note is “dose: 48.0 mg/kg/injection, schedule: Q01DX009 (ip), vehicle: saline”, the survivor count was 10 of 10.
For the compound `CN(C)c1ccc(C(N)=O)cn1`, the T/C was 138 % of control under setting [2] and 138 % of control under setting [3].
As to `CNC1C(OC2C(OC3C(O)C(O)C(N=C(N)N)C(O)C3N=C(N)N)OC(C)C2(O)C=O)OC(CO)C(O)C1O` (stereo unspecified), the survivor count (dose: 400.0 mg/kg/injection, schedule: Q01DX009 (ip), vehicle: water) is given as 6 of 10.
In the case of `O=C1CCCC2C1C1(O)CCC2(O)c2cccc(O)c21` (stereo unspecified), the survivor count is listed as 10 of 10 (dose: 25.0 mg/kg/injection, schedule: Q01DX009 (ip), vehicle: Klucel (hydroxypropylcellulose) (HPC)); 10 of 10 (dose: 40.0 mg/kg/injection, schedule: Q04DX003 (ip), vehicle: saline); 10 of 10 under setting [4].
As to `CC(C)N(C(=O)c1ccccc1Cl)c1ccccc1`, the survivor count runs as follows: under setting [4], 9 of 10; (dose: 200.0 mg/kg/injection, schedule: Q01DX009 (ip), vehicle: Klucel (hydroxypropylcellulose) (HPC)) 6 of 10; under setting [5], 0 of 10.
For `O=C1C2(Cl)C3(Cl)C4(Cl)C(Cl)(Cl)C5(Cl)[C@]3(Cl)C1(Cl)[C@]5(Cl)C24Cl` (stereo partly specified), the T/C (dose: 12.5 mg/kg/injection, schedule: Q01DX009 (ip), vehicle: saline with Tween-80) is 137 % of control. Besides, the survivor count (dose: 25.0 mg/kg/injection, schedule: Q01DX009 (ip), vehicle: saline with Tween-80) is recorded as 10 of 10; the survivor count under setting [4] was 10 of 10; the survivor count (dose: 50.0 mg/kg/injection, schedule: Q01DX009 (ip), vehicle: saline with Tween-80) was 8 of 10; the survivor count under setting [6] is given as 4 of 10.
Turning to `CCOC(=O)C(NC(=O)C(Cc1ccc(N(CCCl)CCCl)cc1)NC(C)=O)C(C)C` (stereo unspecified), the survivor count (dose: 12.5 mg/kg/injection, schedule: Q01DX009 (ip), vehicle: saline) is 10 of 10; the survivor count (dose: 25.0 mg/kg/injection, schedule: Q01DX009 (ip), vehicle: saline) was 10 of 10; the survivor count (dose: 50.0 mg/kg/injection, schedule: Q01DX009 (ip), vehicle: saline) is 5 of 10; the survivor count (dose: 100.0 mg/kg/injection, schedule: Q04DX003 (ip), vehicle: saline) was 5 of 10; the survivor count (dose: 200.0 mg/kg/injection, schedule: Q04DX003 (ip), vehicle: saline) is on record as 1 of 10; the survivor count under setting [1] was 1 of 10.
As for `CCCCCCCC(=O)CCC`, under setting [5], the survivor count is reported as 7 of 10.
Regarding `O=C1CN=C(c2ccccc2)c2cc(Cl)ccc2N1`, the survivor count under setting [4] is listed as 8 of 10 and the survivor count under setting [6] is given as 8 of 10.
